Sequences of proteins named here, by UniProt entry; tags and fusion partners are left off.
UniProt P09471, whole entry, looked up: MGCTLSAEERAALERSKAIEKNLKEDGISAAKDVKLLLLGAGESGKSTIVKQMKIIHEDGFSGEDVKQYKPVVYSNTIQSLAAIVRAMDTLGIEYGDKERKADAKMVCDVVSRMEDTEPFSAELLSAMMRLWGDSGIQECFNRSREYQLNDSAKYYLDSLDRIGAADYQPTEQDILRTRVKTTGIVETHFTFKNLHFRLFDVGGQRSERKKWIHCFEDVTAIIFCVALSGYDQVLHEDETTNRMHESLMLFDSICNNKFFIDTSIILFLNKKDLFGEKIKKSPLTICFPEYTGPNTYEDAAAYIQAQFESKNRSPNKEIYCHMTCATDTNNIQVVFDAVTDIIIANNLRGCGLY

Among all 220,000 compounds or so, about 770 (0.35%) were called active. This list was built around the results that the source calls inconclusive (neither active nor inactive); the mix of calls is not that of the screen. Rule as the data show it: active = binding response below about 49% or above about 150%; inconclusive = no clear call, values can overlap the other calls; inactive = in between.
What follows are molecules tested against Guanine nucleotide-binding protein G(o) subunit alpha (Homo sapiens) (UniProt P09471) (assay: RGS7-Galphao binding modulators, primary screen, biochemical, multiplexed bead flow cytometry (AID 1439;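 also: fluorescent Galphao held in activated GDP-AlF4 state binding bead-coupled RGS7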)). Conditions: at 10 µM, actives lie on both sides.
With `O=C1C2C(c3cccc(/C=C/c4ccccc4)c3)CC=CC2C(c2ccc3ccccc3c2)N1Cc1ccccc1` (configuration not stated) the binding response (% of control) was inconclusive: 126%. For `CC(=O)Nc1ccc(N2C(=O)CSC2c2cccc([N+](=O)[O-])c2)cc1` (configuration not stated), the binding response (% of control) was inconclusive: 95.5%. With `CN(C)C(CNC(=O)c1cc(S(=O)(=O)N(C)c2ccccc2)ccc1Cl)c1ccccc1` (configuration not stated) the binding response (% of control) was inconclusive: 144%. With `OCC1OC(n2cnc3ccccc32)CC1O` (configuration not stated) the binding response (% of control) was inconclusive: 92.3%. For `CC(C)(C)S(=O)(=O)c1cnc(-c2cnccn2)nc1N`, the binding response (% of control) was inconclusive: 160%. `CCOc1cc(C(=S)N2CCCCC2)ccc1OCC(=O)NCc1ccccc1` was tested, and the binding response (% of control) was inactive: 96%. For `O=S(=O)(O)c1cccc(N=Nc2c(O)ccc3ccccc23)c1`, the binding response (% of control) was inconclusive: 94.2%. In the case of `COc1ccc(OC)c(-c2nc3ccccc3nc2-c2ccccc2)c1`, the binding response (% of control) is reported as inconclusive: 50.4%. For `CCN(CC)C(=O)CSc1n[nH]c(=S)n1N`, the binding response (% of control) was inconclusive: 133%. `Cc1ccc(OCC(=O)c2cc(C)n(Cc3cccs3)c2C)c([N+](=O)[O-])n1` was tested, and the binding response (% of control) was inconclusive: 95.5%. With `O=C(CN1CCN(Cc2ccccc2F)C1=O)NCCc1ccc(Cl)cc1` the binding response (% of control) was active: 159% [activator]. With `CC1=Nc2cccc([N+](=O)[O-])c2NC(=O)C1` the binding response (% of control) was inactive: 96.8%. With `COC(=O)C1=C(C(=O)OC)[C@@H]2N(C)c3ccccc3[C@@]23C[C@@H](C(=O)OC)N(C(=O)C2CCC2)C3=N1` the binding response (% of control) was inconclusive: 106%. `Cc1ccc(CC(=O)NCCS(=O)c2ccc(C)cc2)cc1` (configuration not stated) was tested, and the binding response (% of control) was inactive: 105%. In the case of `COc1ccccc1-c1cc(C(=O)NN)[nH]n1`, the binding response (% of control) is reported as inconclusive: 112%. With `Cc1cccc(NC2SC(=O)NC2=O)c1` (configuration not stated) the binding response (% of control) was inactive: 98.9%. For `COCCNC(=S)NNc1cccc(C(=O)O)c1`, the binding response (% of control) was inactive: 90.4%. In the case of `O=C(Cn1ccc(C(F)(F)F)n1)N=Nc1c(O)[nH]c2ccc(Br)cc12`, the binding response (% of control) is reported as inactive: 97.8%. In the case of `Cc1nn(-c2ccccc2)c(N)c1C1(O)C(=O)Nc2ccc([N+](=O)[O-])cc21` (configuration not stated), the binding response (% of control) is reported as inconclusive: 101%. With `Cc1nnc(NC(=O)c2ccccc2Oc2ccccc2)s1` the binding response (% of control) was inactive: 102%. For `CCN(C(=S)NC(=O)C1CCCC1)C1CCCCC1`, the binding response (% of control) was inconclusive: 91.4%. In the case of `Cc1cc(Br)ccc1OCCN1CC(C)OC(C)C1` (configuration not stated), the binding response (% of control) is reported as inconclusive: 85.2%. In the case of `CCOC(=O)c1cn2nc(N3CCCC3)ccc2n1`, the binding response (% of control) is reported as inconclusive: 105%. In the case of `COc1cc(C(=O)NNC(=S)NC(=O)c2ccc3c(c2)OCO3)cc(OC)c1OC`, the binding response (% of control) is reported as inconclusive: 100%. In the case of `CCCOc1ccc(N2C(=O)CC(N(CCc3ccc(OC)cc3)C(=O)c3ccccc3)C2=O)cc1` (configuration not stated), the binding response (% of control) is reported as inconclusive: 77.9%. For `c1ccc(CCn2nnnc2C(c2cccnc2)N2CCN(c3ccccc3)CC2)cc1` (configuration not stated), the binding response (% of control) was inactive: 84.9%. For `CCN(CC)S(=O)(=O)c1cc(NS(=O)(=O)c2cccc(C(=O)O)c2)ccc1C`, the binding response (% of control) was inconclusive: 105%. With `CC(C)OC(=O)C(C)Oc1ccc(C(=O)NCCc2ccccc2)cc1` (configuration not stated) the binding response (% of control) was inactive: 112%. With `Cn1c(NNC(=O)C(c2ccccc2)c2ccccc2)cc(=O)n(C)c1=O` the binding response (% of control) was inactive: 85.4%. With `COC(OC)c1nc(SCC(=O)Nc2cccc(Cl)c2)ncc1C(=O)O` the binding response (% of control) was inconclusive: 77%. With `CC(C)n1cnc2c(NCc3ccccc3)nc(NCc3ccccc3)nc21` the binding response (% of control) was inconclusive: 98%. `CCn1nc(C)c(CNC(=O)c2cc(COc3ccc(F)cc3Cl)on2)c1C` was tested, and the binding response (% of control) was inconclusive: 116%. `O=C(c1coc(=O)c(Br)c1)N1CCC(C(O)(c2ccccc2)c2ccccc2)CC1` was tested, and the binding response (% of control) was inconclusive: 82.3%. For `CC(=O)Nc1ccc(NC(=O)c2ccc(Cl)nc2)cc1`, the binding response (% of control) was inconclusive: 66.8%. With `CCC1CCC(C(=O)NNC(=O)c2cc(-c3ccco3)[nH]n2)CC1` (configuration not stated) the binding response (% of control) was inconclusive: 96.6%. For `CN(C)c1c(F)cc(C(=O)NCc2ccccc2)cc1F`, the binding response (% of control) was inconclusive: 86.2%. In the case of `CCOc1ccccc1NC(=O)Nc1cccc(NC(C)=O)c1`, the binding response (% of control) is reported as inconclusive: 116%. For `COc1ccc(NC(=O)c2nc(C)n(-c3ccc([N+](=O)[O-])cc3)n2)cc1`, the binding response (% of control) was inconclusive: 84.7%. With `O=C1C=C(Nc2ccccc2C(=O)O)c2ccccc2C1=O` the binding response (% of control) was inconclusive: 66.8%. With `CCO[C@@H]1OC(C(=O)NCc2ccccc2)=C[C@H](C(C)(C)C)[C@H]1CCCO` the binding response (% of control) was inconclusive: 96.9%. With `CNC(=S)N/N=C(\C)c1ccc2c(c1)OCO2` the binding response (% of control) was inconclusive: 101%. For `CCC(C)NS(=O)(=O)c1ccc(OCC(=O)Nc2ccc3c(c2)OCCO3)cc1` (configuration not stated), the binding response (% of control) was inactive: 97.9%. In the case of `CC(OC(=O)c1ccc(S(=O)(=O)NCc2ccco2)cc1)C(=O)Nc1ncc(Cl)cc1Cl` (configuration not stated), the binding response (% of control) is reported as inactive: 97.4%. For `COCCNc1ccc(N2C(=O)CCCC2=O)cc1[N+](=O)[O-]`, the binding response (% of control) was inactive: 103%. With `Cc1c(C(=O)N(Cc2ccccc2)Cc2cccs2)cnn1-c1ccc(Cl)cc1` the binding response (% of control) was inconclusive: 87.7%. With `CC(C)(C)NC(=S)NCC1CC1` the binding response (% of control) was inconclusive: 77.6%. In the case of `CN(C)/C=C1\C(=O)N(c2ccc(F)cc2F)C(c2cccnc2)S1(=O)=O` (configuration not stated), the binding response (% of control) is reported as inconclusive: 74.4%. `CC(=O)c1cccc(NC(=O)C(C)N(C)CC(=O)Nc2ccc(Cl)cc2)c1` (configuration not stated) was tested, and the binding response (% of control) was inconclusive: 79.2%. In the case of `CC1(C)Cc2nc(-c3ccccc3)nc(SCC(=O)N3CCCC3)c2CO1`, the binding response (% of control) is reported as inconclusive: 113%. In the case of `Cc1ccc(-c2oc3ccccc3c(=O)c2OCC(=O)O)cc1`, the binding response (% of control) is reported as inconclusive: 112%. With `CC1(C)CC(=O)C(C2c3ccccc3S(=O)(=O)c3ccccc32)C(=O)C1` the binding response (% of control) was inconclusive: 108%. `c1ccc(Sc2ncccn2)nc1` was tested, and the binding response (% of control) was inconclusive: 38.2%. With `Cc1ccc(C(=O)NN2C(=O)C3C4C=CC([C@@H]3C2=O)C42CC2)cc1` (some centres not stated) the binding response (% of control) was inconclusive: 65.9%. In the case of `COc1ccc([C@@H]2C[C@@H](c3ccccc3)Oc3cc(OC)cc(OC)c32)cc1`, the binding response (% of control) is reported as inconclusive: 114%. For `O=C(OCc1cc(Cl)ccc1OC(F)F)c1cccnc1`, the binding response (% of control) was inconclusive: 95.2%. For `CCOc1ccccc1C(=O)Nc1nn[nH]n1`, the binding response (% of control) was inconclusive: 104%. With `O=S(=O)(c1ccc(Cl)cc1)N1CCCN(c2nc3ccc(Cl)cc3s2)CC1` the binding response (% of control) was inconclusive: 92.8%.

Reference: PubChem BioAssay AID1439 (NMMLSC, 2008)
